± gives the standard deviation of the averaged measurements. The entries are a selection whose mix differs from that of the whole data set.
Compound: Nc1ncnc2c1ncn2[C@@H]1O[C@H](COP(=O)(O)OP(=O)(O)OP(=O)(O)O)[C@@H](O)[C@H]1O [adenosine triphosphate]
Assay: NP40-soluble protein abundance relative to vehicle (solubility fold change) (ratio); higher = more soluble protein in presence of ATP
Summary of the method: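 Data come from three independent experiments in which Dounce-homogenised Jurkat crude lysate was treated at eight concentrations from 0.1 to 10 mM. Treatment ran 10 min at room temperature and then 3 min at 37 °C, after which 0.8% NP40 and benzonase were added for 60 min at 4 °C before ultracentrifugation. The supernatant underwent TMT labelling and LC-MS/MS, and vsn-normalised intensities were expressed as fold change against the detergent-processed vehicle in each replicate.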

The chains behind the UniProt entries cited, without tags or fusion partners. Where a name states a change or a piece, a line headed by the entry shows the natural chain unless it says otherwise.
UniProt P13196: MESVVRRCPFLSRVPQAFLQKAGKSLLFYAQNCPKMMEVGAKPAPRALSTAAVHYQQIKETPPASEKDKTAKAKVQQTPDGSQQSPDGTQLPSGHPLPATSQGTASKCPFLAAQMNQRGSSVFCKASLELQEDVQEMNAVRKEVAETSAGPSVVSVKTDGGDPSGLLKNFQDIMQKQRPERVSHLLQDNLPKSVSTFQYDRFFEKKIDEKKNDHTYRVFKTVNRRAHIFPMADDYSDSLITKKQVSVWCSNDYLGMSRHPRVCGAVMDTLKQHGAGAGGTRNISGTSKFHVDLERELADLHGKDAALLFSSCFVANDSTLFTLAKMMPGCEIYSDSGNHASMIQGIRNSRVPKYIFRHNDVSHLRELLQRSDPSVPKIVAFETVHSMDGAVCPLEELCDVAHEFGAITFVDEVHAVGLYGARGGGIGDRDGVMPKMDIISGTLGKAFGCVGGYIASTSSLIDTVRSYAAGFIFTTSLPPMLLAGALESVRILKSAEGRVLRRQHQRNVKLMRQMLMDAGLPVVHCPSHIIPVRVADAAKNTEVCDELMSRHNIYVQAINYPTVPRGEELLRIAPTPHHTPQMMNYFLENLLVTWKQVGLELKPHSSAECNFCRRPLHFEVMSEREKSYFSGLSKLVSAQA
UniProt P07814: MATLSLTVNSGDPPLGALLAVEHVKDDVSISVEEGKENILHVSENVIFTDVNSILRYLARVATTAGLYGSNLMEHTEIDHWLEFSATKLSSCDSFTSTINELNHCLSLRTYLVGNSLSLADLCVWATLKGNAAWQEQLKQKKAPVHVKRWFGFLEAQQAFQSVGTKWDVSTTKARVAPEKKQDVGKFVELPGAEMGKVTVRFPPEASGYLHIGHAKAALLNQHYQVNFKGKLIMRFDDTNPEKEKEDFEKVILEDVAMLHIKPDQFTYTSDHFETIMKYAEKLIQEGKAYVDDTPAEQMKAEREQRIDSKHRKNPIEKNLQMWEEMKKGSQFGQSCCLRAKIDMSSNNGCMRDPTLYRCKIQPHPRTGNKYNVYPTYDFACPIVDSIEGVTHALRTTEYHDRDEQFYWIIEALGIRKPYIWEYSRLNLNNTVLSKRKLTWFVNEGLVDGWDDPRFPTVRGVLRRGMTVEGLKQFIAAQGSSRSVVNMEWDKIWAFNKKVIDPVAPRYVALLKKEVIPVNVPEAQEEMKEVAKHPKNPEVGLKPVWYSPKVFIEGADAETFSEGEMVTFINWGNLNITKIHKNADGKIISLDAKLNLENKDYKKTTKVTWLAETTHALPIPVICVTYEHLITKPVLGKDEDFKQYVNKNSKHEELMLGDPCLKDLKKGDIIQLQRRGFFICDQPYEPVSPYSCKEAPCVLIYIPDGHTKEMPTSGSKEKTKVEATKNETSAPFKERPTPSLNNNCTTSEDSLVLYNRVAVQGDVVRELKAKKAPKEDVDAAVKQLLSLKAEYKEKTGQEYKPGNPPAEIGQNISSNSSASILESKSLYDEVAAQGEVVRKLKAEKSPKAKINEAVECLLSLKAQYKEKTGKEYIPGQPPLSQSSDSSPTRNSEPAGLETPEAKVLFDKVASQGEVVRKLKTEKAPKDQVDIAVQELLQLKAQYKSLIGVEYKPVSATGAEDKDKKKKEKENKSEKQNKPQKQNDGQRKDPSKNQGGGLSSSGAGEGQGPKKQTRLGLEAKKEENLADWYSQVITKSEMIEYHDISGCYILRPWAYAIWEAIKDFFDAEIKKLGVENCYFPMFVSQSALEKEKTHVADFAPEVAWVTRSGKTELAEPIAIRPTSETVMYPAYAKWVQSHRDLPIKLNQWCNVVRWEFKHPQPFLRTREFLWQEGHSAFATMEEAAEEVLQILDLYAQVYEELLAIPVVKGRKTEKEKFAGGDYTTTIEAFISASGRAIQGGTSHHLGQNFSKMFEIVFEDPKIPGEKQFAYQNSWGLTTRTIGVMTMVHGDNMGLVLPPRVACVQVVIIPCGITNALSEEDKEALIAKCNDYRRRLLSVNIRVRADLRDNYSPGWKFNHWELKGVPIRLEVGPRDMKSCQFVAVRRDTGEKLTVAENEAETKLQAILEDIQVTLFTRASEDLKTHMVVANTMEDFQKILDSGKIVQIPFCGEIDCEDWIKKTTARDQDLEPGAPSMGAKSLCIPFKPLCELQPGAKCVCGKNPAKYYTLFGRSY
UniProt P00374: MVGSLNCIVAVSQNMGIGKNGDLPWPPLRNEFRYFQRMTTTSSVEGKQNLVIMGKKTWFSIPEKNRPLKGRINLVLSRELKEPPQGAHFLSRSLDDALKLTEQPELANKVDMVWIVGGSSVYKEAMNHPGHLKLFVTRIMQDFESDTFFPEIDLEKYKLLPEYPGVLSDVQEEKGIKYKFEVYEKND
UniProt P06400: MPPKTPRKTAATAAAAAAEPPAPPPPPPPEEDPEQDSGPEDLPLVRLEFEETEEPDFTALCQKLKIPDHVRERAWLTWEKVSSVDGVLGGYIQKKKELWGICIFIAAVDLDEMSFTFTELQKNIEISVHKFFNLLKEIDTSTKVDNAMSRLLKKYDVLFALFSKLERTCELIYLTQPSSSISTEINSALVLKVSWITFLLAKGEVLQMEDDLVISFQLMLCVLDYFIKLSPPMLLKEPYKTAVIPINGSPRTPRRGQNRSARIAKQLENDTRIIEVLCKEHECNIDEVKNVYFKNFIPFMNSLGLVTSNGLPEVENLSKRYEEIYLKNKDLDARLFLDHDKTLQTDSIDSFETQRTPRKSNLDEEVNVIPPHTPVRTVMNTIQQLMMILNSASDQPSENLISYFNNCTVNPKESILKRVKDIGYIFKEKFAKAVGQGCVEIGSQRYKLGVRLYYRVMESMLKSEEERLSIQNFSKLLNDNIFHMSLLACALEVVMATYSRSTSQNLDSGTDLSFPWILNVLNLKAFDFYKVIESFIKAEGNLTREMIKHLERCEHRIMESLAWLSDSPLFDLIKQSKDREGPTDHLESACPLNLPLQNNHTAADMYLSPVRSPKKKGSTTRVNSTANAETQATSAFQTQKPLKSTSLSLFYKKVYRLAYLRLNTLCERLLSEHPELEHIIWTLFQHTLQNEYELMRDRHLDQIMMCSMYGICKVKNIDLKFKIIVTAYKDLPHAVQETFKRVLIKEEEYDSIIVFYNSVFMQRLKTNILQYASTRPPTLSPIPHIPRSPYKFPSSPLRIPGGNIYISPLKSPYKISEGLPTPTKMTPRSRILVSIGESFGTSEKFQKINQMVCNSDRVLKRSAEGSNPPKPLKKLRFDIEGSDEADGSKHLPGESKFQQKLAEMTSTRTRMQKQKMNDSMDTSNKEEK
UniProt P07305, whole entry: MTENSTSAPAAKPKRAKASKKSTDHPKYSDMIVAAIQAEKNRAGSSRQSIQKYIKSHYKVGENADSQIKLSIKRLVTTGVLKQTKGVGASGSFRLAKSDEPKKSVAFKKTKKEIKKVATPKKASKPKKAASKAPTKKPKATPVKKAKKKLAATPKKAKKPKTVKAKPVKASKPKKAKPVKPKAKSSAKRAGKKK
UniProt P06730, whole entry: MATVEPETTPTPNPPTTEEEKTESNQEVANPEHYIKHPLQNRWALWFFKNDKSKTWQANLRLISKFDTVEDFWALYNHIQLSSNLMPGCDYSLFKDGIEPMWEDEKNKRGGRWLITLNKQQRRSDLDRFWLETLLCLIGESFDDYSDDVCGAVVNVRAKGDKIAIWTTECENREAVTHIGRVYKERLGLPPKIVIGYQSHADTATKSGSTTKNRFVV
UniProt P00966: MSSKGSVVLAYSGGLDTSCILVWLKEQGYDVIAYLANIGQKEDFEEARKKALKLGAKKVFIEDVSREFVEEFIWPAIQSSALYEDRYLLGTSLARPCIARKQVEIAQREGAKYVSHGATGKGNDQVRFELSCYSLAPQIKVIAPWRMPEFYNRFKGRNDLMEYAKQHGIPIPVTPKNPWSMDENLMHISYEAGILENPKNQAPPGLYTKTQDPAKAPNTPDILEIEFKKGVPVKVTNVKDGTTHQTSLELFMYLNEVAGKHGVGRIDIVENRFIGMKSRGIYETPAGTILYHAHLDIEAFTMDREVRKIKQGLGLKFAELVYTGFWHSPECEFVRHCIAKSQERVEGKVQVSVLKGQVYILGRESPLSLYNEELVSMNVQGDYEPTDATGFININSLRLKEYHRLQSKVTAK
UniProt P11216: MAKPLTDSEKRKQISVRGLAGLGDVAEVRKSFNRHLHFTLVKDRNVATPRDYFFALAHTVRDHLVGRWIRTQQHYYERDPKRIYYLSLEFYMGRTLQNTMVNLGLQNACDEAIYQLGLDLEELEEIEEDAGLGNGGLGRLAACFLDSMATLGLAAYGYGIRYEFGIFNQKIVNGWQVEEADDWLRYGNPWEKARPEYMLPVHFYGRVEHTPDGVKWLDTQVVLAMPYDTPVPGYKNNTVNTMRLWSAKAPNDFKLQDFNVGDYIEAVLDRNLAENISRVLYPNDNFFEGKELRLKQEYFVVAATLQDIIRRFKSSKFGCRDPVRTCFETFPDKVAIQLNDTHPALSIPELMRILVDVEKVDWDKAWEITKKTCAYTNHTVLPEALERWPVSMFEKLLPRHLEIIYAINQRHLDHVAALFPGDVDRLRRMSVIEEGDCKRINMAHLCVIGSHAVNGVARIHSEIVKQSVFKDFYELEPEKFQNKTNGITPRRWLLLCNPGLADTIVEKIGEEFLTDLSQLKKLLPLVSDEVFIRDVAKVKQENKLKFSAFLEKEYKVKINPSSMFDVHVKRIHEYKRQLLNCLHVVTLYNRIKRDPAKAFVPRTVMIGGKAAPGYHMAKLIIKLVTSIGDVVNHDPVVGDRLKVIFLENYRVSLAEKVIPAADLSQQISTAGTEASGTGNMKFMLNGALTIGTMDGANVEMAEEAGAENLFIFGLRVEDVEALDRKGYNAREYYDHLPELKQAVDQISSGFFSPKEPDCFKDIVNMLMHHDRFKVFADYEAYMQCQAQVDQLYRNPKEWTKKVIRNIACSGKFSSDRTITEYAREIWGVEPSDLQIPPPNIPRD
UniProt P11182, whole entry: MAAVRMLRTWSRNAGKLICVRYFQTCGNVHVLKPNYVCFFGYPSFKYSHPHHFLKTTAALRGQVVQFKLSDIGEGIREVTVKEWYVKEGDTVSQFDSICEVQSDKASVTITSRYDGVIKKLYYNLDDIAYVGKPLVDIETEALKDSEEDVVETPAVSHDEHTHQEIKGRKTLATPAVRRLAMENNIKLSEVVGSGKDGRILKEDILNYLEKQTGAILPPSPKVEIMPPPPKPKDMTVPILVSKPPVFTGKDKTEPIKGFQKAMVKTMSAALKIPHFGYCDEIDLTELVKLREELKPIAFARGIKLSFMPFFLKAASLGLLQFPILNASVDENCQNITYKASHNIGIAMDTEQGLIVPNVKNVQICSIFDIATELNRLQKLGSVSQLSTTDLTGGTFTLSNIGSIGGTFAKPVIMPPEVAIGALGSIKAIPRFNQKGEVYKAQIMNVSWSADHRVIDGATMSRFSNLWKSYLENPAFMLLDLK
UniProt P16278: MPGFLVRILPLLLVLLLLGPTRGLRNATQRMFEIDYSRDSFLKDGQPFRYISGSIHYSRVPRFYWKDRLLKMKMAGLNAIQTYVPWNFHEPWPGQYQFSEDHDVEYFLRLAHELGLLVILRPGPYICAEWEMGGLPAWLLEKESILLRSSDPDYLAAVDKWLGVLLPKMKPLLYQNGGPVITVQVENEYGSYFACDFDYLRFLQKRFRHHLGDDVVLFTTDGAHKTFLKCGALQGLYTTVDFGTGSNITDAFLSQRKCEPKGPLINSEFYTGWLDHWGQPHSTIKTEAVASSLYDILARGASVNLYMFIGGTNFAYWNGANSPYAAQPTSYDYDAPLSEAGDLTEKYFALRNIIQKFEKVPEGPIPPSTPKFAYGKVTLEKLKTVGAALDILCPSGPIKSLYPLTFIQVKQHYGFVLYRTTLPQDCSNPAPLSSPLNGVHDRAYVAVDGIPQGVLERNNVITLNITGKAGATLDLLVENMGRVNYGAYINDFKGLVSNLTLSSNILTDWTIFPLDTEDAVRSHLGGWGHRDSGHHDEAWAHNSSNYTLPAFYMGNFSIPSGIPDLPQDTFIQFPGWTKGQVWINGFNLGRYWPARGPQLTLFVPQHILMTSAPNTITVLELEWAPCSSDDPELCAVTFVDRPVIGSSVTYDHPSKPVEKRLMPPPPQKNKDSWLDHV
UniProt P11802: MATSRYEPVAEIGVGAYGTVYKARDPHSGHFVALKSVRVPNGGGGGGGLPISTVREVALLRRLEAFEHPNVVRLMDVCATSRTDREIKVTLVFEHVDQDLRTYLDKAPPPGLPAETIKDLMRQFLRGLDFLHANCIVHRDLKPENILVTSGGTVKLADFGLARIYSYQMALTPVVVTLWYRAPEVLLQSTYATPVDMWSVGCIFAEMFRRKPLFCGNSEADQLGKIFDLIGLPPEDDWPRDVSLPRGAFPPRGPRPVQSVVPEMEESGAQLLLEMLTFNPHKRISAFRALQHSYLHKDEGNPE
UniProt P07741: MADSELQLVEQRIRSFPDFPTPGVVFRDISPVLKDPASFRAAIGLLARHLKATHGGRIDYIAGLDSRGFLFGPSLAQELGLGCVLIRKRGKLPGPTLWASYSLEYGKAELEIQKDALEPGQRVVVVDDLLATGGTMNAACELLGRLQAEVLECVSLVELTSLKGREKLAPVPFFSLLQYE

Target	NP40-soluble protein abundance (concentration: 1mM)	NP40-soluble protein abundance (concentration: 2mM)	NP40-soluble protein abundance (concentration: 4mM)	NP40-soluble protein abundance (concentration: 6mM)	NP40-soluble protein abundance (concentration: 8mM)	NP40-soluble protein abundance (concentration: 10mM)
CAT (UniProt P04040)	0.996 ± 0.044	0.964 ± 0.023	0.956 ± 0.045	0.961 ± 0.022	0.97 ± 0.028	0.946 ± 0.021
UniProt P16298 and related entries	0.947 ± 0.036	0.94 ± 0.012	0.929 ± 0.0096	0.984 ± 0.094	0.915 ± 0.059	0.928 ± 0.012
ALAS1 (UniProt P13196)	1 ± 0.068	1.04 ± 0.045	1.09 ± 0.082	1.07 ± 0.084	1.06 ± 0.034	1.05 ± 0.036
UniProt P15170-2|P15170-3	0.995 ± 0.03	0.976 ± 0.031	0.94 ± 0.032	0.993 ± 0.026	0.937 ± 0.029	0.954 ± 0.046
EPRS (UniProt P07814)	1.04 ± 0.012	0.9662 ± 0.0063	0.93 ± 0.017	0.985 ± 0.16	0.997 ± 0.08	0.938 ± 0.064
SNRPB2 (UniProt P08579)	1.02 ± 0.061	1 ± 0.015	0.988 ± 0.037	1.09 ± 0.018	1.04 ± 0.021	1.04 ± 0.022
RPLP0 (UniProt P05388)	0.929 ± 0.017	0.928 ± 0.063	0.881 ± 0.086	0.822 ± 0.064	0.772 ± 0.038	0.86 ± 0.071
DHFR (UniProt P00374)	1.04 ± 0.079	0.999 ± 0.1	0.981 ± 0.081	0.979 ± 0.053	0.986 ± 0.041	0.993 ± 0.055
UniProt P07355 and related entries	0.9813 ± 0.007	0.994 ± 0.022	0.967 ± 0.025	0.988 ± 0.048	0.959 ± 0.027	0.923 ± 0.048
CTSB (UniProt P07858)	0.969 ± 0.098	0.9589 ± 0.0095	0.948 ± 0.025	0.976 ± 0.034	0.944 ± 0.058	0.931 ± 0.024
RB1 (UniProt P06400)	0.987 ± 0.012	0.993 ± 0.029	0.958 ± 0.018	0.98 ± 0.026	0.966 ± 0.028	0.981 ± 0.048
UniProt O96011 and related entries	0.966 ± 0.086	0.927 ± 0.033	0.981 ± 0.039	0.912 ± 0.066	0.9571 ± 0.0058	0.97 ± 0.056
GOT2 (UniProt P00505)	0.955 ± 0.11	0.945 ± 0.1	0.923 ± 0.049	0.906 ± 0.11	0.926 ± 0.05	0.927 ± 0.085
H1F0 (UniProt P07305)	0.934 ± 0.03	0.883 ± 0.031	0.88 ± 0.023	0.857 ± 0.041	0.692 ± 0.068	0.968 ± 0.044
UniProt P06730 and related entries	0.987 ± 0.032	1.01 ± 0.033	0.977 ± 0.012	0.989 ± 0.065	0.967 ± 0.029	1.02 ± 0.035
CREB1 (UniProt P16220)	0.955 ± 0.062	0.944 ± 0.041	0.888 ± 0.024	0.936 ± 0.029	0.883 ± 0.033	0.86 ± 0.019
XRCC6 (UniProt P12956)	0.865 ± 0.17	1.07 ± 0.15	0.88 ± 0.1	0.972 ± 0.072	1.04 ± 0.12	0.805 ± 0.15
UniProt P14618 and related entries	1 ± 0.04	0.969 ± 0.034	0.931 ± 0.055	0.926 ± 0.068	0.956 ± 0.039	0.939 ± 0.048
NCK1 (UniProt P16333)	0.975 ± 0.044	0.986 ± 0.053	0.991 ± 0.03	0.972 ± 0.053	0.964 ± 0.054	0.958 ± 0.042
ASS1 (UniProt P00966)	0.997 ± 0.091	1.01 ± 0.09	1.02 ± 0.08	0.963 ± 0.12	1.01 ± 0.062	0.998 ± 0.059
UniProt P06241 and related entries	1.17 ± 0.082	1.14 ± 0.011	1.16 ± 0.039	1.08 ± 0.022	1.09 ± 0.025	1.11 ± 0.013
UniProt P00491	0.968 ± 0.12	0.976 ± 0.099	0.959 ± 0.065	0.872 ± 0.16	0.961 ± 0.058	0.974 ± 0.065
UniProt P06454-2|B8ZZQ6 and related entries	0.925 ± 0.085	0.868 ± 0.043	0.904 ± 0.035	1.01 ± 0.11	0.844 ± 0.024	0.843 ± 0.073
PYGB (UniProt P11216)	0.845 ± 0.14	0.828 ± 0.068	0.956 ± 0.08	1.04 ± 0.056	1.27 ± 0.047	1.33 ± 0.048
DLAT (UniProt P10515)	1.31 ± 0.28	1.03 ± 0.2	0.967 ± 0.16	1.06 ± 0.51	1.04 ± 0.35	0.987 ± 0.28
DBT (UniProt P11182)	1.05 ± 0.07	1.01 ± 0.095	0.983 ± 0.094	1.02 ± 0.22	1.05 ± 0.17	1.05 ± 0.13
PDIA4 (UniProt P13667)	0.981 ± 0.014	0.9605 ± 0.0066	0.9233 ± 0.0076	0.982 ± 0.025	0.935 ± 0.029	0.93 ± 0.034
UniProt P16278 and related entries	0.97 ± 0.021	1 ± 0.043	0.992 ± 0.026	0.926 ± 0.034	0.922 ± 0.052	0.955 ± 0.015
UniProt P11802 and related entries	1.02 ± 0.081	1.01 ± 0.054	0.988 ± 0.11	0.98 ± 0.087	0.978 ± 0.076	0.95 ± 0.019
APRT (UniProt P07741)	0.826 ± 0.056	0.87 ± 0.065	0.852 ± 0.018	0.735 ± 0.12	0.804 ± 0.021	0.85 ± 0.014

Reformatted as comma-separated lines: entries from further up.
Target,NP40-soluble protein abundance (concentration: 1mM),NP40-soluble protein abundance (concentration: 2mM),NP40-soluble protein abundance (concentration: 4mM),NP40-soluble protein abundance (concentration: 6mM),NP40-soluble protein abundance (concentration: 8mM),NP40-soluble protein abundance (concentration: 10mM)
RB1 (UniProt P06400),0.987 ± 0.012,0.993 ± 0.029,0.958 ± 0.018,0.98 ± 0.026,0.966 ± 0.028,0.981 ± 0.048
UniProt O96011 and related entries,0.966 ± 0.086,0.927 ± 0.033,0.981 ± 0.039,0.912 ± 0.066,0.9571 ± 0.0058,0.97 ± 0.056
